The values that follow come from the supplement of paper PMC12819154, “High-throughput peptide-centric local stability assay extends protein–ligand identification to membrane proteins, tissues and bacteria” (Nature Structural & Molecular Biology, 2025).

Sequences of proteins named here, by UniProt entry; tags and fusion partners are left off. A change or cut given only in a name is not applied to a line headed by its entry.
UniProt Q9UI08, whole entry: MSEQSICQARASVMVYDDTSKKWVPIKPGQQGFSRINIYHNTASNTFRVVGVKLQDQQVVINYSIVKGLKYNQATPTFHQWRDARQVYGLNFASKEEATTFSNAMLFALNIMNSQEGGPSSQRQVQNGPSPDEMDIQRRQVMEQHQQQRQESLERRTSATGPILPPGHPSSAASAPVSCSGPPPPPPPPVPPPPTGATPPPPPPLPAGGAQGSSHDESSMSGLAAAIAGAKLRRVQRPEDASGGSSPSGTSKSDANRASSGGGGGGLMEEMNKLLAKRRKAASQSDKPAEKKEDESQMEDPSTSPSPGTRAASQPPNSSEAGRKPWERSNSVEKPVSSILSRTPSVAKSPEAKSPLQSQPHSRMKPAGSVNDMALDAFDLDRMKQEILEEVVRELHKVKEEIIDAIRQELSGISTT
UniProt Q9UPQ9, whole entry: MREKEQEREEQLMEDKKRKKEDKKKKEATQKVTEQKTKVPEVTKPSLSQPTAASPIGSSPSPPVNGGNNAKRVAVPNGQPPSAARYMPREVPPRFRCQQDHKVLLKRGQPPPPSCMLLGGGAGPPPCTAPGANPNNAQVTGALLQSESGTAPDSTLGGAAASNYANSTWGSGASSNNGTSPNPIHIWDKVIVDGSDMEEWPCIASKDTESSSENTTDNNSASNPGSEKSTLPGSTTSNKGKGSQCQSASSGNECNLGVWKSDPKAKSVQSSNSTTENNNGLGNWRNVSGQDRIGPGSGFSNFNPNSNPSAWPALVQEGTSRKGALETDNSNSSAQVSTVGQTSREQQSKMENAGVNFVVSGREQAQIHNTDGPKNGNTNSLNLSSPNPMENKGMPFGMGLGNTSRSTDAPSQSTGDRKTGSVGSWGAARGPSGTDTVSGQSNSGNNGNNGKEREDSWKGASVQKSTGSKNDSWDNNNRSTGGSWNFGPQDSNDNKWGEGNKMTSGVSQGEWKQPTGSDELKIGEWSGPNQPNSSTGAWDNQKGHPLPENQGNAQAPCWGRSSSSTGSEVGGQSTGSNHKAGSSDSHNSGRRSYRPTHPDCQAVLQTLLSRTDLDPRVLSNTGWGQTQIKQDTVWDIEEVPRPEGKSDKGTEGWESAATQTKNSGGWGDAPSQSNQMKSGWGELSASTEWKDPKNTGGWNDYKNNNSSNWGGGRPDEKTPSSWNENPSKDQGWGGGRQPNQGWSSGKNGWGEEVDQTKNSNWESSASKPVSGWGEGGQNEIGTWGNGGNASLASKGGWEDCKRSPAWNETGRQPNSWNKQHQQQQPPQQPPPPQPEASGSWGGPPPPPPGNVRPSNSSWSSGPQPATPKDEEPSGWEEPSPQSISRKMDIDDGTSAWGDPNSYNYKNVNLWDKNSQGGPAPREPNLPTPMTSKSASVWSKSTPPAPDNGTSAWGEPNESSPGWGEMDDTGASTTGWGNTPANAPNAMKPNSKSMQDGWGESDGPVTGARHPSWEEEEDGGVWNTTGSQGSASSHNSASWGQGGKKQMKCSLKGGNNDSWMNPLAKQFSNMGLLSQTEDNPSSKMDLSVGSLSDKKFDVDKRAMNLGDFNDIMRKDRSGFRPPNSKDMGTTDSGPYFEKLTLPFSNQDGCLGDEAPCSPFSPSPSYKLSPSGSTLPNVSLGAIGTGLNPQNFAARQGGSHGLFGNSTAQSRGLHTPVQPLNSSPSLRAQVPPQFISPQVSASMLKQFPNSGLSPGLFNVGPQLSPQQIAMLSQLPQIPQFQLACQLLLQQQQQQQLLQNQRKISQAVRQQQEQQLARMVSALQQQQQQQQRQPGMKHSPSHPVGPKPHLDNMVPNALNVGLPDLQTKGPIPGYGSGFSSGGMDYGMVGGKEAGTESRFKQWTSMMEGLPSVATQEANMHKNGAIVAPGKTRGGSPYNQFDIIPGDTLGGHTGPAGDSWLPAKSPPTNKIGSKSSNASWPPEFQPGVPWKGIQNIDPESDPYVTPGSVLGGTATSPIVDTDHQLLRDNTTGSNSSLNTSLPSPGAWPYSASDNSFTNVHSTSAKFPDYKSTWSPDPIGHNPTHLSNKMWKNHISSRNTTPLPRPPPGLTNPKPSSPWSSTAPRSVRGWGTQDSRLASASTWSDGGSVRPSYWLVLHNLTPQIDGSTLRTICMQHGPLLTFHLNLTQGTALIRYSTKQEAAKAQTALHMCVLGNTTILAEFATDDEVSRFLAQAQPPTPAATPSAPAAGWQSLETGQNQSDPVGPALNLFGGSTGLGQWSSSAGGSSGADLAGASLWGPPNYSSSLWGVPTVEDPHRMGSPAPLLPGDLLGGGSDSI
UniProt Q9UKT9: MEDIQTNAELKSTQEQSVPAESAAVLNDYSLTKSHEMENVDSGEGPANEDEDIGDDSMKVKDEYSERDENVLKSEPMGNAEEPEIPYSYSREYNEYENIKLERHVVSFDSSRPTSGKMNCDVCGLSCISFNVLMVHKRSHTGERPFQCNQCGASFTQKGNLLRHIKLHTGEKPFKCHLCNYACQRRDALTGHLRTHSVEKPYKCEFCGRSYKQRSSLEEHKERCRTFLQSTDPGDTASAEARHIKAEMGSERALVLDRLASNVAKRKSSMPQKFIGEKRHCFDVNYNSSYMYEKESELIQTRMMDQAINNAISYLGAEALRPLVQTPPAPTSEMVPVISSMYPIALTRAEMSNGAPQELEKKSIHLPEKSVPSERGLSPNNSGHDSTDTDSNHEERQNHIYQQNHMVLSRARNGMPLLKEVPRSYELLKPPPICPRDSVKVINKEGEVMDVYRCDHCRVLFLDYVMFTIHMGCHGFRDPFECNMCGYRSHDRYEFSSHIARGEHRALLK
UniProt Q9Y230, whole entry: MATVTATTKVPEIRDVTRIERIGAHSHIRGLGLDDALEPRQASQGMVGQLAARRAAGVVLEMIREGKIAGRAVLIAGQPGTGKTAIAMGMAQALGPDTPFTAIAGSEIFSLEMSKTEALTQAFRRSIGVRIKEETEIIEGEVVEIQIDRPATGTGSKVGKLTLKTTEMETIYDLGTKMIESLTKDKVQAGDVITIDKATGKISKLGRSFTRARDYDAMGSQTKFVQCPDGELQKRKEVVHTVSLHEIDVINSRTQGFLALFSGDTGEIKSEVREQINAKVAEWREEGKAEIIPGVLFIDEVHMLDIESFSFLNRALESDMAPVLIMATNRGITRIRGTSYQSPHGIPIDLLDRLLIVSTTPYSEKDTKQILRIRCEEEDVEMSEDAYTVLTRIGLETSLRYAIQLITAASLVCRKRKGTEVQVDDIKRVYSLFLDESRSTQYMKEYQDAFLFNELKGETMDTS
UniProt Q9UNY4: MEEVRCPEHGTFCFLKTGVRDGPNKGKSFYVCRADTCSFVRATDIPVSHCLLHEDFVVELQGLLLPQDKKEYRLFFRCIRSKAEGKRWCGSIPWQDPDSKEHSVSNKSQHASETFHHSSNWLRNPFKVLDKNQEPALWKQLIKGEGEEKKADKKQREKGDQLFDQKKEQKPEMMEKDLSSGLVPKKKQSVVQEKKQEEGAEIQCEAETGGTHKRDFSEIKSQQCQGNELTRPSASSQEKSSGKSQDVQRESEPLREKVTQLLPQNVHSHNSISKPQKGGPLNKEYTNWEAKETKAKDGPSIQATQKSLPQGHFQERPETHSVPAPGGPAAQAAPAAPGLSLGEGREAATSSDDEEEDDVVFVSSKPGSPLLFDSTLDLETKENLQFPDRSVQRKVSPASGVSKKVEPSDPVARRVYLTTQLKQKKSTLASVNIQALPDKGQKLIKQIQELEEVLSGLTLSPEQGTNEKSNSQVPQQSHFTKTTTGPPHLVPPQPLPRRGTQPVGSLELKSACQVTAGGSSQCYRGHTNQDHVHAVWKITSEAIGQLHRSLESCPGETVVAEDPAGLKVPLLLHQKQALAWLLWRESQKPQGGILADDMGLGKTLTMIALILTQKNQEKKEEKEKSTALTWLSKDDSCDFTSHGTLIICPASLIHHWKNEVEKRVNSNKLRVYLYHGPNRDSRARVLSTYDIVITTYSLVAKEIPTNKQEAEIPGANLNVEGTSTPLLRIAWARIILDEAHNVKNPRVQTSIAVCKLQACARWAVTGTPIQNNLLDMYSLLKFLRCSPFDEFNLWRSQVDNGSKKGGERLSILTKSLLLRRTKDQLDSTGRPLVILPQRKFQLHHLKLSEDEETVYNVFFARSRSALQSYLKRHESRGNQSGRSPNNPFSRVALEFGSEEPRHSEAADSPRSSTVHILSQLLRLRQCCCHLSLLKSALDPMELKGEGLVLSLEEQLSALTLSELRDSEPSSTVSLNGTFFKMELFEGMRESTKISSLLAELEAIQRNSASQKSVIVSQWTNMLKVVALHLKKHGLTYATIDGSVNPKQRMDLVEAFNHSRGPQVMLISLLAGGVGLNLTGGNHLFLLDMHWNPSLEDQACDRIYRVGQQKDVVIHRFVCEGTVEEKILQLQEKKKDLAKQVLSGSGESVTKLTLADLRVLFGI
UniProt Q9UI95, whole entry: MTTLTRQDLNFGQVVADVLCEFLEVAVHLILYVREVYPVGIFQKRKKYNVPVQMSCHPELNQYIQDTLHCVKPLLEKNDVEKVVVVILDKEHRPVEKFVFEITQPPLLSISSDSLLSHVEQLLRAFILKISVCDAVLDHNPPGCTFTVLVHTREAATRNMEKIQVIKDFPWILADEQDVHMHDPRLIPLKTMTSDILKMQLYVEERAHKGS
UniProt Q9UQR0: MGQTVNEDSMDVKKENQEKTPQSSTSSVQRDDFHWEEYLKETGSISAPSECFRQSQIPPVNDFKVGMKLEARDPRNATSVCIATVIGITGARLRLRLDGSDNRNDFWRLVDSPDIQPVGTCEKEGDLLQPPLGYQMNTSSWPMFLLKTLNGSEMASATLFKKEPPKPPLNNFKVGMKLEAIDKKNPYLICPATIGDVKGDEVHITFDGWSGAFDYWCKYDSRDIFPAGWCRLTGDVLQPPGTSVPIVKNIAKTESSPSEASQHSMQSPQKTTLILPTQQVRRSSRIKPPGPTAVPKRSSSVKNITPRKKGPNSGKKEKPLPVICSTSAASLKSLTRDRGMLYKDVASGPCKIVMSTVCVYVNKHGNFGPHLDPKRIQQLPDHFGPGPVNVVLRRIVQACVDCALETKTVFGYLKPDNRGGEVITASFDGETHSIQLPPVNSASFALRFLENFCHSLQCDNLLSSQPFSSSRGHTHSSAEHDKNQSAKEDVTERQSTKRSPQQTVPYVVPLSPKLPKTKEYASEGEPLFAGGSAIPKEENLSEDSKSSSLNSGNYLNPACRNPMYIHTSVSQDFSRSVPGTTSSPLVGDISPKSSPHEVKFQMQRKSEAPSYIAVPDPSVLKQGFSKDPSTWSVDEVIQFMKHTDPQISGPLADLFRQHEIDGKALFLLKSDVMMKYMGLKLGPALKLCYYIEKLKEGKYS
UniProt Q9UKV8, whole entry: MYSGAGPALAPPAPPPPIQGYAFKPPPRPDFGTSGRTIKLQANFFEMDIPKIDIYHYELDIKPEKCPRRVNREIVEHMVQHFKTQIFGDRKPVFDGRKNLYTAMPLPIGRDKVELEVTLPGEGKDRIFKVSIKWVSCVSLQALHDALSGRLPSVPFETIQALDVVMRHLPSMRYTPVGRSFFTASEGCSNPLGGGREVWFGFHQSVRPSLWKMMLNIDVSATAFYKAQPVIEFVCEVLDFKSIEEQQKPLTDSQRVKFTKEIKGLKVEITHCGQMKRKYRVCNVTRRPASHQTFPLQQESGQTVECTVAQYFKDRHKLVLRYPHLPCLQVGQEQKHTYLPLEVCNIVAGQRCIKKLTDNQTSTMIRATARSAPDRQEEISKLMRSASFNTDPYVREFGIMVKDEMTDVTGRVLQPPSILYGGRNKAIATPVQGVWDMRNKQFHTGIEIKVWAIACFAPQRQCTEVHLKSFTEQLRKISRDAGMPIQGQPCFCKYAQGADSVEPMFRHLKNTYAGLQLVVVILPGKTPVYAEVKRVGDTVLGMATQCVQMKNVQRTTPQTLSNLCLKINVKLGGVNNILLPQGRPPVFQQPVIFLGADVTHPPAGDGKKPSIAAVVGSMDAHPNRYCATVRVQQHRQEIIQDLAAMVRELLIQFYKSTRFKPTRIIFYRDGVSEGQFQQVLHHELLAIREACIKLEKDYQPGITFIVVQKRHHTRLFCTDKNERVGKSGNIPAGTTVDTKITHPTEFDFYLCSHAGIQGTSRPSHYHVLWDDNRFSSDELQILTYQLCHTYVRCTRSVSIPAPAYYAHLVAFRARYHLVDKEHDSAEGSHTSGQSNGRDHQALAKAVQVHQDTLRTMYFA
UniProt Q9UHH9: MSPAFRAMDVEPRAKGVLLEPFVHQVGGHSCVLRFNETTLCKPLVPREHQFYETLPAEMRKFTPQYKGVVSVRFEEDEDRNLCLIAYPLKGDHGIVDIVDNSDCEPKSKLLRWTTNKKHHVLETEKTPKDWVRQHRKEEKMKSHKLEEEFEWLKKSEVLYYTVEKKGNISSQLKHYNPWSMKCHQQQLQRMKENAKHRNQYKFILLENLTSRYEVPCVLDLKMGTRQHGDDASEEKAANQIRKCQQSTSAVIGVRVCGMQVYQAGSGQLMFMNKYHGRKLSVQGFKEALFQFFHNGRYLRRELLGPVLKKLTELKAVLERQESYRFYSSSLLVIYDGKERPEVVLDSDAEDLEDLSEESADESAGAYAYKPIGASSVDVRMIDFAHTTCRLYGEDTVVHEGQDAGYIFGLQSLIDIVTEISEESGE

Some of the results follow. Most values lie at the level of the controls, where differences are scatter.

Compound in the assay: Cc1nc(Nc2ncc(C(=O)Nc3c(C)cccc3Cl)s2)cc(N2CCN(CCO)CC2)n1 [dasatinib]
Put plainly: log2 fold change of tryptic peptide abundance, ligand vs vehicle (limited proteolysis) (log2 ratio); higher = more trypsin-susceptible (destabilized). The following applies: ligand concentration: 5 uM; sample: K562 cleared lysate.
As to “UniProt Q9UM82 (peptide sequence: RQDALRPDVWLLR, peptide start residue: 349)”, the log2 fold change was -0.0644.
Take “TTC7A (peptide sequence: IKDSMPLLEKNEPK, peptide start residue: 85) (UniProt Q9ULT0)”: the log2 fold change amounted to 0.317.
The same measure for “DICER1 (peptide sequence: LPSDPFTHLAPK, peptide start residue: 641) (UniProt Q9UPY3)”: -0.174; for “VPS51 (peptide sequence: LGHHLQGLR, peptide start residue: 407) (UniProt Q9UID3)”: -1.1.
The same measure for “UniProt Q9ULD9 (peptide sequence: GHSSTTAQSSQLK, peptide start residue: 978)”: 0.785.
The same measure for “EVL (peptide sequence: QVMEQHQQQR, peptide start residue: 140) (UniProt Q9UI08)”: -0.75.
Consider “TNRC6B (peptide sequence: STWSPDPIGHNPTHLSNK, peptide start residue: 1567) (UniProt Q9UPQ9)”, for which the log2 fold change is -0.159.
As to “RABGEF1 (peptide sequence: NLDLLSQLNER, peptide start residue: 413) (UniProt Q9UJ41)”, the log2 fold change came to 0.0582.
For “TSKS (peptide sequence: VDGFLGQWER, peptide start residue: 362) (UniProt Q9UJT2)” the value was -0.127; for “UniProt Q9UKT9 (peptide sequence: SSLEEHKER, peptide start residue: 214)”, 0.582.
On to “CASP8AP2 (peptide sequence: DVHHSTSLPNLEK, peptide start residue: 188) (UniProt Q9UKL3)”, for which the log2 fold change stood at 0.449.
As for “PPT2 (peptide sequence: WLFPTSMR, peptide start residue: 151) (UniProt Q9UMR5)”, the log2 fold change is -0.336.
The same measure for “RUVBL2 (peptide sequence: FVQCPDGELQKR, peptide start residue: 224) (UniProt Q9Y230)”: 0.107; for “DDX19B (peptide sequence: VVPDPNVIK, peptide start residue: 287) (UniProt Q9UMR2)”: -0.0932.
For “UniProt Q9UJA3 (peptide sequence: AGVVCSLPAR, peptide start residue: 544)” the value was 0.187; for “TTF2 (peptide sequence: HSEAADSPR, peptide start residue: 902) (UniProt Q9UNY4)”, 0.412.
The same measure for “MAD2L2 (peptide sequence: EVYPVGIFQK, peptide start residue: 35) (UniProt Q9UI95)”: 0.153; for “SCML2 (peptide sequence: NPMYIHTSVSQDFSR, peptide start residue: 561) (UniProt Q9UQR0)”: -0.258.
Regarding “LCMT1 (peptide sequence: RFAVSIGYWHDPYIQHFVR, peptide start residue: 38) (UniProt Q9UIC8)”, the log2 fold change is -0.618.
For the target “AK3 (peptide sequence: ITTHFELK, peptide start residue: 27) (UniProt Q9UIJ7)”, the log2 fold change was -0.315.
Consider “TFR2 (peptide sequence: LWGLFQR, peptide start residue: 4) (UniProt Q9UP52)”, for which the log2 fold change is -0.0937.
The same measure for “TBC1D2B (peptide sequence: DQLELDR, peptide start residue: 482) (UniProt Q9UPU7)”: 0.36; for “TBC1D24 (peptide sequence: ILACNDPGRR, peptide start residue: 158) (UniProt Q9ULP9)”: 0.179; for “RCOR1 (peptide sequence: EVPPTETVPQVK, peptide start residue: 286) (UniProt Q9UKL0)”: 0.219.
For “UniProt Q9UKN5 (peptide sequence: GVMCGLPER, peptide start residue: 80)” the value was -0.299.
With “SH2B3 (peptide sequence: TDHFLSCYPWFHGPISR, peptide start residue: 355) (UniProt Q9UQQ2)”, the log2 fold change came out at 0.551.
Consider “RPL26L1 (peptide sequence: YKEELIEK, peptide start residue: 135) (UniProt Q9UNX3)”, for which the log2 fold change came to 0.0293.
In the case of “UniProt Q9UKV8 (peptide sequence: DHQALAKAVQVHQDTLRTMYFA, peptide start residue: 838)”, the log2 fold change is -0.486.
For “MAPRE3 (peptide sequence: FFDANYDGK, peptide start residue: 114) (UniProt Q9UPY8)” the value was -0.0493.
For “USP24 (peptide sequence: TLLSESSSQSSKSPSLSSK, peptide start residue: 1129) (UniProt Q9UPU5)” the value was 0.392.
For the target “UniProt Q9UPU3 (peptide sequence: GIPAPAK, peptide start residue: 118)”, the log2 fold change is -0.16.
In the case of “NRBP1 (peptide sequence: REEVNQR, peptide start residue: 68) (UniProt Q9UHY1)”, the log2 fold change came out at 0.266.
The same measure for “RPUSD1 (peptide sequence: YRFPELADPDTCYGFR, peptide start residue: 46) (UniProt Q9UJJ7)”: 0.207; for “UniProt Q9Y253 (peptide sequence: KLCPDLLLAQVR, peptide start residue: 70)”: -0.191.
For “UniProt Q9UHH9 (peptide sequence: FNETTLCKPLVPR, peptide start residue: 35)” the value was 0.23.
With “UniProt Q9UK39 (peptide sequence: QFCIAVTHLK, peptide start residue: 279)”, the log2 fold change was -0.653.
For “MINPP1 (peptide sequence: LASLFPALFSR, peptide start residue: 161) (UniProt Q9UNW1)” the value was 0.489.
